Laboratory results taken from article PMC8634136 (The EMBO Journal, 2021).
Results are given in words; binding and its absence hold for the method and conditions named. Some results given as binding are weak or reduced against the parent protein; the word gives no strength.

Target: T1, Tof1 (S. cerevisiae) (UniProt P53840)
T1 sequence: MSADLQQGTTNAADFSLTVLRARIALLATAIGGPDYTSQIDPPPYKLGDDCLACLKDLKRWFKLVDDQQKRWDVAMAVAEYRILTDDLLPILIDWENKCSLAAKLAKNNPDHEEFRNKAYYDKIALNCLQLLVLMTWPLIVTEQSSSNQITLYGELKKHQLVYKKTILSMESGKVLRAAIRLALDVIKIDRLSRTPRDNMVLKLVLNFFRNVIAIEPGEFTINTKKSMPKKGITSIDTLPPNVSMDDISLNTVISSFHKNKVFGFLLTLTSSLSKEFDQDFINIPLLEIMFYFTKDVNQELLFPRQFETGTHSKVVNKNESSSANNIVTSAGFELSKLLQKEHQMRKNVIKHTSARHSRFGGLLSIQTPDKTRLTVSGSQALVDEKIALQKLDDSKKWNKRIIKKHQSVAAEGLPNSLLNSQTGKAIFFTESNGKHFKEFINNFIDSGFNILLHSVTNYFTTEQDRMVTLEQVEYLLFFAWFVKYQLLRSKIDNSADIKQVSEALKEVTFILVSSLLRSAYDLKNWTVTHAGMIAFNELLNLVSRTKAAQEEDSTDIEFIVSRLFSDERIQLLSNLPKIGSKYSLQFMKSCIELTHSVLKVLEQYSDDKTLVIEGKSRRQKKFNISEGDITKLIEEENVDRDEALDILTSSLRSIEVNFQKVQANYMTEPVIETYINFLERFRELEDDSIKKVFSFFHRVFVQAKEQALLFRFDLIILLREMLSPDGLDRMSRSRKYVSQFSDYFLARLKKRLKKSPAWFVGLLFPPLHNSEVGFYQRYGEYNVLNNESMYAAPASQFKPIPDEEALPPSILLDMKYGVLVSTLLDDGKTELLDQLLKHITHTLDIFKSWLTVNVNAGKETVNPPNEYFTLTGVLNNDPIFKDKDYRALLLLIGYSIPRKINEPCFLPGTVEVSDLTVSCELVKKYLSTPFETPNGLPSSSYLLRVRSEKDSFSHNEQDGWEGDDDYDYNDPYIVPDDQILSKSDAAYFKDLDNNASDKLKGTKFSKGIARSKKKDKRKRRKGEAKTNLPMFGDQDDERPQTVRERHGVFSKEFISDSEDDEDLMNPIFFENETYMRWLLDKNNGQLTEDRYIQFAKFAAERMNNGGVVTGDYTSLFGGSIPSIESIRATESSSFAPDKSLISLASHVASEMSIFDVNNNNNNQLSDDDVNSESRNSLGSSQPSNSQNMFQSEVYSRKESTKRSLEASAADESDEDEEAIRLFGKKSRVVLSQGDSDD
Assay: cryo-EM structure; re-inspection of the authors' published S. cerevisiae replisome map; AlphaFold prediction of Mrc1 residues 325-335 docked into unmodelled density on Tof1

binding: binds
B1: Mrc1 (protein, UniProt P25588 1-1096)
chain: MDDALHALSSLTAKKRTTTYKKVAVPILDENDNTNGNGPNDIDNPPELTGNGFLFANATLNRVKNRLEGKKAPEQNHNNGKDRSENSLPTQLISNLYDGGEELEKSEVKDNSYSEKNVSSSFTQTQRIPVSIQQDKVFNVPIHSVNDGKPTQLIKEDGLVNETSQALKTPLTTGRPGATQRIDSSGATSQTQPIKSIEPQSQIITTSSNHSNALSPKIPIIPTELIGTSPLFQSIQNRGPDTQMDVPPQTAHDEDKTQAIGIPQATHQEQKTQIDTVAQTLQDEVPHTLKIREIQSELASEDSKREKARNVEYKKPQKPIPTKKFFSKESFLADFDDSSSNEDDDIKLENAHPKPVQNDDELHENKSVELNLTDETRINEKRVPLLSSYANNLKREIDSSKCITLDLDSDSDEYGDDDMDSIKLSKDESVLPISQLSKATILNLKARLSKQNQKLSQRPNKSKDPKVDHNVLLNTLRKASRKQILDHQKEVIETKGLKLEDMAKEKEIVENLLEQEILRNKRIRQKEKRREKLEENDFQLNAHDSGSDSGSESSGFALSGNEIADYESSGSENDNRRESDSEKEDDEIILKQKKSHHVKHIINESDSDTEVEAKPKEKADESLPKRIAINLGHYGDNIGEDTDKFQETNVLDTQNIEEVMAERNTIENEVKDDVYVNEEADEAIRRQLIDKEKLQLKQKEKEHEAKIKELKKRGVTNFFEMEAEESEDEWHGIGGADGEGSDDYDSDLEKMIDDYSKNNFNPHEIREMLAAENKEMDIKMINKILYDIKNGGFRNKRAKNSLELELSDDDEDDVLQQYRLKRRELMRKRRLEIGDDAKLVKNPKSSAFFESMVEDIIEYKNPFGAEEEYNLDITSTATDLDTQDNSINVGDNTGNNEQKPVDQKNKKVIISEDFVQKSLSFLKSNNYEDFETDKELSRIQHGNDEAIEDLYTLKQNSSIKSFTNSQTDSTTSKTVNTIIDLEKRPEDEDEVENGDTSLVGVFKHPSIIKSFASRTDINDKFKEGNKTVKILKSYKTVGSSKASITYMGKTRKLIAPKRKTEGSHRYHHDHHNKKMKMKTKTKSNKLFESGQDSFDN
